Reference: PubChem BioAssay AID540276 (National Center for Advancing Translational Sciences (NCATS), 2011)
In all, about 300,000 compounds went through this assay and about 5,400 (1.8%) were called active. This list was built around the results that the source calls inconclusive (neither active nor inactive); the mix of calls is not that of the screen. The call rests on the fitted dose curve; tested in HEK293 cells. A potency beside an inconclusive call is a rough fit, not a confirmed value.
On the % scale 0 is the no-effect control and ±100 the full control effect; potency means the concentration at half of the fitted maximal effect.

Test: qHTS for inhibitors of binding or entry into cells for Marburg Virus
Conditions: Marburg virus pseudotyped entry inhibition, cell reporter; activity change, negative = inhibition: at 37.8 µM (top of the series) unless noted
With `Cc1ccc(Cl)cc1Nc1nc2ccccc2c2nncn12` the Potency was inconclusive: 0.562 µM [inhibitor, full curve, poor fit]. With `COc1cc(C(=O)NC(C)c2cnn(-c3ccccc3C)c2C)cc(OC)c1OC` (stereo not drawn) the “activity change, negative = inhibition” value was inactive: 15.3% [at 46.1 µM]. In the case of `Cc1ccsc1CCN1C(=O)N(c2ccccc2)C(=O)C1CC(=O)Nc1ccc(F)cc1` (stereo not drawn), the Potency is reported as inconclusive: 3.55 µM [inhibitor, single point]. With `Cc1cccc(N2CCN(C(=O)Cn3cccc3C(=O)c3ccccc3)CC2)c1C` the Potency was inconclusive: 23.1 µM [inhibitor, single point]. For `CCCS(=O)(=O)c1nc(S(=O)(=O)c2ccc(C)cc2)c(NCc2ccco2)s1`, the Potency was inconclusive: 3.55 µM [activator, single point]. With `COc1ccccc1-c1ccc(SCc2ccc(F)cc2)nn1` the Potency was inconclusive: 2.51 µM [activator, full curve]. In the case of `O=C(c1ccccc1)N(NC(=O)C(O)(c1ccccc1)c1ccccc1)c1cccc(F)c1`, the Potency is reported as inconclusive: 5.01 µM [inhibitor, partial curve]. In the case of `COc1ccccc1CNC(=O)C(=O)NCC1CCCN1S(=O)(=O)c1cccs1` (stereo not drawn), the “activity change, negative = inhibition” value is reported as inactive: 23.7%. For `COc1ccccc1N1CCN(C(=O)C2CCCN(c3ncnc4c3nc3n4CCCCC3)C2)CC1` (stereo not drawn), the Potency was inconclusive: 10 µM [inhibitor, partial curve, poor fit]. In the case of `COc1cccc2cc(C(=O)NCc3ccc(C)cc3)c(=O)oc12`, the “activity change, negative = inhibition” value is reported as inactive: -8.43% [at 46.1 µM]. For `CCc1ccc(NC(=O)C2C3/C=C\CCCCC32)cc1` (stereo not drawn), the Potency was inconclusive: 4.47 µM [activator, partial curve, poor fit]. With `Cn1c(O)c(C(=N)COc2ccccc2)c(=O)n(C)c1=O` the “activity change, negative = inhibition” value was inactive: 8.95%. With `COc1cccc(C(=O)NCc2ccc(-c3nc4ccccc4s3)cc2)c1` the Potency was inconclusive: 35.5 µM [inhibitor, single point]. For `COc1ccc(NC(=O)CCC2COc3ccccc3O2)c(OC)c1` (stereo not drawn), the Potency was inconclusive: 0.708 µM [activator, partial curve, poor fit]. For `C/C(=N\NC(N)=O)c1ccc(-n2ccnc2)cc1`, the “activity change, negative = inhibition” value was inactive: -2.12%. For `COc1ccc(-c2csc3nc(C)nc(N4CCCCC4)c23)cc1OC`, the Potency was inconclusive: 7.08 µM [inhibitor, partial curve]. With `COc1ccc(NC(=O)c2ccccc2NS(C)(=O)=O)cc1OC` the Potency was inconclusive: 35.5 µM [activator, single point]. For `CCn1c2ccccc2c2cc(NS(=O)(=O)c3ccc(C)cc3)ccc21`, the Potency was inconclusive: 35.5 µM [inhibitor, single point]. For `Cc1c(NC(=O)Nc2ccc(Cl)c(Cl)c2)sc(=S)n1C`, the Potency was inconclusive: 35.5 µM [inhibitor, single point]. In the case of `CCCCC(=O)Nc1cc(C)c(O)c(-c2nc3ncccc3o2)c1`, the “activity change, negative = inhibition” value is reported as inactive: 3.63% [at 46.1 µM]. With `CCOC(=O)Nc1ccc(C)cc1NC(=O)OCC` the “activity change, negative = inhibition” value was inactive: 14.2%. In the case of `CC(C)(C)C(=O)Nc1ccc(S(=O)(=O)c2ccc(NC(=O)C(C)(C)C)cc2)cc1`, the “activity change, negative = inhibition” value is reported as inactive: 12.5%. With `Cc1cccc(C(=O)Nc2cc3c(cc2N2CCCCC2)n(C)c(=O)c(=O)n3C)c1` the “activity change, negative = inhibition” value was inactive: -5.31% [at 46.1 µM]. For `Cc1ccc(-n2c(C)cc(C(=O)CN3CCCCC3)c2C)cc1`, the Potency was inconclusive: 22.4 µM [inhibitor, single point]. For `O=c1c2cnn(-c3ccc(Cl)cc3)c2ncn1Cc1ccc(Cl)cc1Cl`, the “activity change, negative = inhibition” value was inactive: 5.05% [at 46.1 µM]. In the case of `CCC(C)n1cnc2c(c1=O)c1nc3ccccc3nc1n2Cc1ccc(OC)cc1` (stereo not drawn), the “activity change, negative = inhibition” value is reported as inactive: -25.9%. In the case of `Cc1cc(NCc2ccccn2)n2nc(C)c(-c3ccc(Cl)cc3)c2n1`, the Potency is reported as active: 10 µM. For `Cc1ccc(-n2nc3c(SCCN4CCOCC4)nnc(C)c3c2C)cc1`, the Potency was inconclusive: 0.794 µM [inhibitor, single point]. With `CCOC(=O)c1c(C(F)(F)C(F)(F)C(F)(F)C(F)(F)F)n[nH]c1C` the Potency was inconclusive: 18.3 µM [inhibitor, single point]. With `O=c1c2sc3ccccc3c2n(Cc2ccccc2F)c(=O)n1Cc1ccccc1` the Potency was inconclusive: 2.24 µM [inhibitor, full curve, poor fit]. For `CC1=C(C(=O)Nc2ccccc2)C(c2cccnc2)n2nc(SCc3ccccc3F)nc2N1` (stereo not drawn), the Potency was inconclusive: 35.5 µM [activator, single point]. In the case of `CCS(=O)(=O)Nc1ccc(C(=O)c2ccccc2)cc1`, the Potency is reported as inconclusive: 6.31 µM [inhibitor, single point]. In the case of `CC(C)Cn1c(SCC(=O)Nc2cccnc2Cl)nnc1-c1ccco1`, the “activity change, negative = inhibition” value is reported as inactive: -12.9% [at 46.1 µM]. In the case of `Cc1ccc(NNC2CC(=O)N(c3cccc(Cl)c3)C2=O)cc1` (stereo not drawn), the Potency is reported as inconclusive: 6.31 µM [inhibitor, single point]. In the case of `CCCN(c1ccc(C(C)C)cc1)S(=O)(=O)c1ccc2c(c1)CCN2C(=O)CC`, the Potency is reported as inconclusive: 3.16 µM [activator, single point]. For `NC[C@H](O)C1CCCCCCC1`, the “activity change, negative = inhibition” value was inactive: -36%. In the case of `Cc1cc(C(C)(C)C)oc1C(=O)N(CC(=O)NC1CCCC1)Cc1ccc(Cl)cc1`, the Potency is reported as inconclusive: 18.3 µM [inhibitor, single point]. With `CCCC1CCc2c(c3ccccc3[nH]c2=O)O1` (stereo not drawn) the “activity change, negative = inhibition” value was inactive: -7.74%. For `Cc1cc(N2C(=O)C=CC2=O)c([N+](=O)[O-])cc1C`, the Potency was inconclusive: 0.231 µM [inhibitor, partial curve, poor fit]. With `CN(C)C(=O)C(Sc1ccc(S(=O)(=O)N2CCCC2)cn1)c1ccccc1` (stereo not drawn) the Potency was inconclusive: 0.251 µM [activator, full curve, poor fit]. For `CCOc1cc(N2CCOCC2)c(OCC)cc1NC(=O)CC12CC3CC(CC(C3)C1)C2`, the Potency was inconclusive: 20 µM [inhibitor, single point]. In the case of `COc1ccc(OC)c(-c2nc3c(C#N)c[nH]n3c2NC2CCCCC2)c1`, the Potency is reported as inconclusive: 20 µM [inhibitor, single point]. In the case of `COc1cccc(C(=O)Nc2ccccc2NC(=O)c2cccc(OC)c2)c1`, the “activity change, negative = inhibition” value is reported as inactive: -1.82%. With `COc1c2occc2c(OC(C)=O)c2c(=O)cc(C)oc12` the “activity change, negative = inhibition” value was inactive: 16.4%. With `COc1ccc(Cc2nnc(SCC(=O)c3ccc(OC)cc3)o2)cc1` the “activity change, negative = inhibition” value was inactive: -29.6%. With `CCOC(=O)c1ccc(NC(=S)NCCC2=CCCCC2)cc1` the Potency was inconclusive: 35.5 µM [inhibitor, single point]. For `CCOC(=O)NC(NS(=O)(=O)c1ccccc1)(C(=O)OCC)C(F)(F)F` (stereo not drawn), the Potency was inconclusive: 0.708 µM [activator, full curve, poor fit]. For `COCCN(CCOc1cc(C)cc(C)c1)Cc1ccc(Cl)cc1`, the Potency was inconclusive: 28.2 µM [inhibitor, single point]. With `COc1cc(C(=O)COC(=O)c2ccco2)cc(OC)c1OC` the “activity change, negative = inhibition” value was inactive: 3.32%. For `CC(C)NC(=O)c1cc2cc(Br)ccc2oc1=O`, the “activity change, negative = inhibition” value was inactive: -1.52%. With `CCOC(=O)C(O)(c1ccc(N(C)C(=O)COc2ccccc2)cc1)C(F)(F)F` (stereo not drawn) the “activity change, negative = inhibition” value was inactive: 14.3%. In the case of `Cc1cc(F)ccc1NCc1ccncc1`, the “activity change, negative = inhibition” value is reported as inactive: 1.49%. With `N#Cc1ccc(-c2cccs2)nc1SCc1c(F)cccc1Cl` the Potency was inconclusive: 0.501 µM [inhibitor, partial curve, poor fit]. For `COc1ccc(N(CC(=O)NCc2ccc(F)cc2)S(=O)(=O)c2c(C)noc2C)cc1`, the Potency was inconclusive: 35.5 µM [activator, single point]. For `COc1ccc(C(=O)NCCc2cnc[nH]2)cc1OC`, the Potency was inconclusive: 6.31 µM [activator, full curve, poor fit]. With `Cc1cc(NC(=O)Cn2nc(-c3cccs3)ccc2=O)cc(C)c1Br` the Potency was inconclusive: 11.2 µM [inhibitor, partial curve, poor fit]. With `O=C(/C=C/c1ccccc1)N/C(=C/c1ccccc1)C(=O)N1CCCCC1` the “activity change, negative = inhibition” value was inactive: -1.78%. For `Cc1cc[n+](CC(=O)Nc2nc3ccccc3s2)cc1`, the Potency was inconclusive: 11.2 µM [activator, partial curve]. In the case of `CN(C)S(=O)(=O)c1ccc(N2CCCC2)c(C(=O)NC2(C)CCS(=O)(=O)C2)c1` (stereo not drawn), the Potency is reported as inconclusive: 1.26 µM [inhibitor, partial curve, poor fit]. For `Cc1c(O)ccc2cc(S(=O)(=O)c3ccccc3)c(=O)oc12`, the “activity change, negative = inhibition” value was inactive: 3.97% [at 46.1 µM]. With `CC(C)OCCCNc1ncnc2c1[nH]c1ccc(F)cc12` the Potency was inconclusive: 8.91 µM [inhibitor, partial curve, poor fit]. With `CN(C)c1ccc(CN(CC2CCCO2)C(=O)COc2ccccc2Cl)cc1` (stereo not drawn) the “activity change, negative = inhibition” value was inactive: -13.5% [at 46.1 µM]. With `Cc1cc(C)c(C(=O)CC(=O)c2cccnc2)c(C)c1` the “activity change, negative = inhibition” value was inactive: -4.18% [at 46.1 µM]. For `Cc1c(C(=O)NC(C)c2ccccn2)oc2c(Cl)cccc12` (stereo not drawn), the “activity change, negative = inhibition” value was inactive: 2.33%. With `COc1ccc(Nc2c3c(nc4ccc(NC(=O)/C=C/c5cc(OC)c(OC)c(OC)c5)cc24)CCCC3)cc1OC` the Potency was inconclusive: 0.316 µM [inhibitor, full curve, poor fit]. In the case of `Fc1cccc(Cl)c1/C=C/c1cnc2ccccc2n1`, the Potency is reported as inconclusive: 7.08 µM [inhibitor, partial curve, poor fit]. In the case of `O=C(NCC1CCN(S(=O)(=O)c2ccccc2)CC1)Nc1ccccc1`, the “activity change, negative = inhibition” value is reported as inactive: -30.8% [at 46.1 µM]. For `O=C(Nc1ccccc1O)c1ccccc1O`, the Potency was inconclusive: 32.6 µM [inhibitor, single point]. With `Cc1cc(C)c2nc(SCC(=O)NNC(=O)c3ccco3)c(C)cc2c1` the Potency was inconclusive: 11.2 µM [inhibitor, partial curve, poor fit]. In the case of `COc1ccccc1C(CNC(=O)c1cccc(S(=O)(=O)N2CCCc3ccccc32)c1)N(C)C` (stereo not drawn), the Potency is reported as inconclusive: 35.5 µM [inhibitor, single point]. In the case of `CCN(CC)C1CCN(C(=O)c2cc(COc3ccc(-n4cncn4)cc3)on2)C1` (stereo not drawn), the “activity change, negative = inhibition” value is reported as inactive: -0.861%. For `CN(C)C(=O)c1ccc(NC(=O)Cn2nnnc2-c2ccccc2F)cc1`, the “activity change, negative = inhibition” value was inactive: 3.43% [at 46.1 µM]. For `COc1cccc(C(=O)Nc2ccc(NC(C)=O)cc2)c1`, the Potency was inconclusive: 29.1 µM [activator, single point].
